Amino acid sequences for entries named in this document (tags omitted). A change or cut given only in a name is not applied to a line headed by its entry.
UniProt Q80YV3: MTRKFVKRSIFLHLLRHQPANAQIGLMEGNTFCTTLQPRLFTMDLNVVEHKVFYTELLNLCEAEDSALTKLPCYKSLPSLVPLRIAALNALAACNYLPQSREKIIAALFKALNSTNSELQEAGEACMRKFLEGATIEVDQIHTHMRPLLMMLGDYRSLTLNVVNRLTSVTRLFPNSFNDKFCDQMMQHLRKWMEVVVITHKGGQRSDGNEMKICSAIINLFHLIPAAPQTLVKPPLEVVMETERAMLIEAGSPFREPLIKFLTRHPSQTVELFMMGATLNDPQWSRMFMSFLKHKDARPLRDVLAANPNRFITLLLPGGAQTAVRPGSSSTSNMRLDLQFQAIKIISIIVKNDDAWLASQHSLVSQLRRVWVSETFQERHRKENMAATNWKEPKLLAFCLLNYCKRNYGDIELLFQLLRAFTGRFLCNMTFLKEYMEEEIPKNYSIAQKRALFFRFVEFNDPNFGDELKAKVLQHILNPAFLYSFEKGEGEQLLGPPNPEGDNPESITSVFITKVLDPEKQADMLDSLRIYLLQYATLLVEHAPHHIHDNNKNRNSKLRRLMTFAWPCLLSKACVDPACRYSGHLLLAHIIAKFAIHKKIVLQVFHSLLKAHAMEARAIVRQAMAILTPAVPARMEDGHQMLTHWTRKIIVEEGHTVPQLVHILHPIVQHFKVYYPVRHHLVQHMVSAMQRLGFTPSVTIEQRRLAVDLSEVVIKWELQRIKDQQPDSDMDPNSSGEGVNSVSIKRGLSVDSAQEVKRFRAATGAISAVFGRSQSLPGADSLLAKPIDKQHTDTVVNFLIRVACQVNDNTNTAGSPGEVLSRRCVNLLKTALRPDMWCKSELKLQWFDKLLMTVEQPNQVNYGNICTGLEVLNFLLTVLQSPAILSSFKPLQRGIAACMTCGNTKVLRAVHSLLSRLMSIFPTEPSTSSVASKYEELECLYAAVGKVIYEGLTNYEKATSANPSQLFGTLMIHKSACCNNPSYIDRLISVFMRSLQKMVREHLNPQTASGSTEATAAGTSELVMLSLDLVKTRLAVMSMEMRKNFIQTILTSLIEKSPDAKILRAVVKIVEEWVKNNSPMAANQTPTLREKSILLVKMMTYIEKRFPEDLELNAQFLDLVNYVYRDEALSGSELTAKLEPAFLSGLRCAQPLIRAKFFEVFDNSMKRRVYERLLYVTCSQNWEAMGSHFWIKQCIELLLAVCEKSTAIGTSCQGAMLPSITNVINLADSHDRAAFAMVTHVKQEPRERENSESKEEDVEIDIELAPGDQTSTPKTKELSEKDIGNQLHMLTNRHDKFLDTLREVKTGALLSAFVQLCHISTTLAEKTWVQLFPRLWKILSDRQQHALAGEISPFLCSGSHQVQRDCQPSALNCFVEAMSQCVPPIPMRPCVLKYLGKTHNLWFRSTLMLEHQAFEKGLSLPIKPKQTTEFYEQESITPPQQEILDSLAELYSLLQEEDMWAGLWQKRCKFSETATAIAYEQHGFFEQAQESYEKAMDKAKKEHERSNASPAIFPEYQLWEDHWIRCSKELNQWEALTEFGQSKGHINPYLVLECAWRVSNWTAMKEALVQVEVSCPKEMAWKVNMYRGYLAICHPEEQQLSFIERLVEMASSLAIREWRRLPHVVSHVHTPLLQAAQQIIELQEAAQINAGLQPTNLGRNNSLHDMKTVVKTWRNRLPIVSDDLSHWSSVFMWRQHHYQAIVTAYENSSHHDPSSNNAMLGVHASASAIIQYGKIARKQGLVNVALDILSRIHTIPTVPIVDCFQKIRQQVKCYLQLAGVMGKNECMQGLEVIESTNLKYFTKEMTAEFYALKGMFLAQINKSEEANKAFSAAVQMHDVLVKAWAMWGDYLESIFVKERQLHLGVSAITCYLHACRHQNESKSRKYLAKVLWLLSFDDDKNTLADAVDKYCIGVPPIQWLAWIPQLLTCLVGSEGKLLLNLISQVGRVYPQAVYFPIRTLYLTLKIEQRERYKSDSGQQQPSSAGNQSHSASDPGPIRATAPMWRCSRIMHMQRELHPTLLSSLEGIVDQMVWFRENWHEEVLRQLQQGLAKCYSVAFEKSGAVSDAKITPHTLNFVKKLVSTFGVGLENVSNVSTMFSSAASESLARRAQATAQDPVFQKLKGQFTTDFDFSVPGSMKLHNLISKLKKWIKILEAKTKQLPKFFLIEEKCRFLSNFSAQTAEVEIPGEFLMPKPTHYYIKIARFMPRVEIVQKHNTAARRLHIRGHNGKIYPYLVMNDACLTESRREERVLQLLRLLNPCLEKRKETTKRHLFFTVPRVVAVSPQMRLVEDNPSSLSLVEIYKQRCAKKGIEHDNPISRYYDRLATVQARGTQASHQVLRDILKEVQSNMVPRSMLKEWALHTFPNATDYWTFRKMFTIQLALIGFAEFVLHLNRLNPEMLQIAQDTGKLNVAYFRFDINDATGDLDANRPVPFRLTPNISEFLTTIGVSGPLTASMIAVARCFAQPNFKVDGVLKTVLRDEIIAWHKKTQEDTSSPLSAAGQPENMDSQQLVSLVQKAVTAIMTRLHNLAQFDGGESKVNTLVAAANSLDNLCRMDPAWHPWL
UniProt O15265: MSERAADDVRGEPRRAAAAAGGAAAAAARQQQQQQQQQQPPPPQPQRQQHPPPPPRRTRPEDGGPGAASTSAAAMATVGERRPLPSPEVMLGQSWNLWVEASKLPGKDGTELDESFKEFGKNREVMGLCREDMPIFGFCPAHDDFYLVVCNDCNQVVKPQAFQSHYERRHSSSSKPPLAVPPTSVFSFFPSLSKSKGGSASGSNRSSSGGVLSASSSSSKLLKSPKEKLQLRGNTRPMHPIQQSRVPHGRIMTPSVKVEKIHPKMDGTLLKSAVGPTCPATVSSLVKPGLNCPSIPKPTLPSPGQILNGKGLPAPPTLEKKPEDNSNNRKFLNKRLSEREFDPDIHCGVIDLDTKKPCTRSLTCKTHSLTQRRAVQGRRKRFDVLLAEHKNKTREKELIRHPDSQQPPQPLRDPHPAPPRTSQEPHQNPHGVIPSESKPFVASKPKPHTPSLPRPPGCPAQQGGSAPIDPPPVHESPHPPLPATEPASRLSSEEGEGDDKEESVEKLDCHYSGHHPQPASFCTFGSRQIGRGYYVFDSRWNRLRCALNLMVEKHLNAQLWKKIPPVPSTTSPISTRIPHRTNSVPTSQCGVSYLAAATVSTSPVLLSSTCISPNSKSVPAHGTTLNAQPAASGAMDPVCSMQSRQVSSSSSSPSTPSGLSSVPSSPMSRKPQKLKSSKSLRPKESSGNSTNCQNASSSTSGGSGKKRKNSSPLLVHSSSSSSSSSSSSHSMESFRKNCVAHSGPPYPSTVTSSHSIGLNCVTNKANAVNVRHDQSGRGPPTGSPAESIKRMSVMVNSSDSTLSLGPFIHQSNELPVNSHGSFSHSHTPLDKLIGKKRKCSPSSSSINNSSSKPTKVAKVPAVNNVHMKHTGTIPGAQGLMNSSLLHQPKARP

According to paper PMC1382020:

Legend:
[1] = target: T1, Spt3 (mouse (endogenous in mouse retina)) (UniProt Q8BVY4); assay: co-IP; whole retinal extracts (two retinas) of 4-wk-old or 10-wk-old R7N or R7E mice; IP with anti-ATXN7, anti-TRRAP or anti-SPT3 antibody on protein A-Sepharose beads; Western blot of the immunopurified fractions
T1 sequence: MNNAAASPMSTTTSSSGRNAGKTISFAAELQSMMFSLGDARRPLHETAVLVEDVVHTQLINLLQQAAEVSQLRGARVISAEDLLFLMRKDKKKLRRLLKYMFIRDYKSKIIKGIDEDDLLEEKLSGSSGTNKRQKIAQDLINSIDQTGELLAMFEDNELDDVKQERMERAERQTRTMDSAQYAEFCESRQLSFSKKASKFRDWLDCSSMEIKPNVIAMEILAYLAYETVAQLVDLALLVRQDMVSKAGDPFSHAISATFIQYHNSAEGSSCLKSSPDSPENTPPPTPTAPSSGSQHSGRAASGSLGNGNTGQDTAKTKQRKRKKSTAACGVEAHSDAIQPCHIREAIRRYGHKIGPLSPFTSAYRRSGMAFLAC

[2] = target: Trrap (mouse (endogenous in mouse retina)) (UniProt Q80YV3); assay: as above

“mutant (90Q) polyQ-expanded ataxin-7 (ATXN7) (from UniProt O15265)” was tested, and the binding [1] was “binds” and the binding [2] was “binds”.
With “normal (10Q) ataxin-7 (ATXN7) (from UniProt O15265 1-892)” the binding [2] was “binds”.

No constants are given. Whether binding was seen depends on the method and setting. In cells and extracts the contact can be indirect. Binding can be weak; no strength is given.
